According to US10429384B2, “Compositions, kits, and methods for identification, assessment, prevention, and therapy of metabolic disorders” (Dana-Farber Cancer Institute, Inc., priority 2010, dated 2019):
At least one structure is not confirmed: it was looked up by name or label, or the drawing left a doubt.

Sequences of proteins named here, by UniProt entry; tags and fusion partners are left off.
UniProt Q00535, whole entry, species assumed: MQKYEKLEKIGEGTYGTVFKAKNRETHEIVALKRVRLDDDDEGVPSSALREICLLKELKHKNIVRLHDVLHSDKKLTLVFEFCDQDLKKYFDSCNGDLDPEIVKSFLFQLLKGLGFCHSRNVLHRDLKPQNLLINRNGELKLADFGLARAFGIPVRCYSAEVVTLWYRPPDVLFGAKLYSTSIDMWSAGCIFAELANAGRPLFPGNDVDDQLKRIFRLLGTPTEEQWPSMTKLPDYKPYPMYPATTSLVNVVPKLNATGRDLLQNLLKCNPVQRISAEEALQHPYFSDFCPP

Experiments:
high-fat fed mice = assay: Glucose tolerance, fasting insulin and body weight in high-fat fed mice; settings: 10 mg/kg for 7 days
[1] = biological target: T1, cdk5 (Rb protein as substrate) (Homo sapiens, UniProt Q00535); assay: In vitro CDK5 kinase assay with Rb as substrate; assay type: biochemical; settings: selectivity control
T1 construct: purchased Millipore or Cell Signaling Technology
Experimental: Kinase assays were performed using an active cdk5/p35 protein and recombinant PPAR gamma protein as a substrate in kinase buffer in the presence of ATP. The reaction was stopped by adding sample buffer. Samples were then subjected to SDS-PAGE, and detected by CDK substrate antibody. In particular, active cdk5/p35, cdk1/cdc2, cdk2/cyclin A, cdk2/cyclin E or cdk4/cyclin D1 kinases were purchased from Millipore or Cell Signaling Technology. In vitro CDK kinase assay was performed according to the manufacturer's instructions (Cell Signaling Technology). Briefly, 1 μg of immuno-purified WT or S273A mutant of PPAR gamma were incubated with active CDK kinase in kinase assay buffer (25 mM Tris-HCl pH 7.5, 5 mM beta-glycerophosphate, 2 mM dithiothreitol (DTT), 0.1 mM Na3VO4, 10 mM MgCl2) containing 20 μM ATP for 15 min at 30° C. Positive control for assay, purified histone H1 (Millipore) or Rb (Cell Signaling Technology) were used. Several PPAR gamma ligands were pre-incubated with substrates for 30 min, and the assay was performed. Phosphorylation of substrates after SDS-PAGE was analyzed with anti-CDK substrate antibody (Cell Signaling Technology).

## CN(CCOc1ccc(CC2SC(=O)NC2=O)cc1)c1ccccn1 (stereo not drawn) [rosiglitazone]
high-fat fed mice
  fasting insulin levels: reduced fasting insulin levels
  glucose tolerance: dramatically improved glucose tolerance
[1]
  inhibition of cdk5 phosphorylation of Rb: does not inhibit the ability of cdk5 to phosphorylate the Rb protein
